Results: publication doi:10.1101/2025.05.02.651162
No constants are given. Whether binding was seen depends on the method and setting. Binding seen in cells or lysates may run through a third protein.

Protein sequences, listed by entry. Tags and fused reporters are not part of them.
UniProt P13864: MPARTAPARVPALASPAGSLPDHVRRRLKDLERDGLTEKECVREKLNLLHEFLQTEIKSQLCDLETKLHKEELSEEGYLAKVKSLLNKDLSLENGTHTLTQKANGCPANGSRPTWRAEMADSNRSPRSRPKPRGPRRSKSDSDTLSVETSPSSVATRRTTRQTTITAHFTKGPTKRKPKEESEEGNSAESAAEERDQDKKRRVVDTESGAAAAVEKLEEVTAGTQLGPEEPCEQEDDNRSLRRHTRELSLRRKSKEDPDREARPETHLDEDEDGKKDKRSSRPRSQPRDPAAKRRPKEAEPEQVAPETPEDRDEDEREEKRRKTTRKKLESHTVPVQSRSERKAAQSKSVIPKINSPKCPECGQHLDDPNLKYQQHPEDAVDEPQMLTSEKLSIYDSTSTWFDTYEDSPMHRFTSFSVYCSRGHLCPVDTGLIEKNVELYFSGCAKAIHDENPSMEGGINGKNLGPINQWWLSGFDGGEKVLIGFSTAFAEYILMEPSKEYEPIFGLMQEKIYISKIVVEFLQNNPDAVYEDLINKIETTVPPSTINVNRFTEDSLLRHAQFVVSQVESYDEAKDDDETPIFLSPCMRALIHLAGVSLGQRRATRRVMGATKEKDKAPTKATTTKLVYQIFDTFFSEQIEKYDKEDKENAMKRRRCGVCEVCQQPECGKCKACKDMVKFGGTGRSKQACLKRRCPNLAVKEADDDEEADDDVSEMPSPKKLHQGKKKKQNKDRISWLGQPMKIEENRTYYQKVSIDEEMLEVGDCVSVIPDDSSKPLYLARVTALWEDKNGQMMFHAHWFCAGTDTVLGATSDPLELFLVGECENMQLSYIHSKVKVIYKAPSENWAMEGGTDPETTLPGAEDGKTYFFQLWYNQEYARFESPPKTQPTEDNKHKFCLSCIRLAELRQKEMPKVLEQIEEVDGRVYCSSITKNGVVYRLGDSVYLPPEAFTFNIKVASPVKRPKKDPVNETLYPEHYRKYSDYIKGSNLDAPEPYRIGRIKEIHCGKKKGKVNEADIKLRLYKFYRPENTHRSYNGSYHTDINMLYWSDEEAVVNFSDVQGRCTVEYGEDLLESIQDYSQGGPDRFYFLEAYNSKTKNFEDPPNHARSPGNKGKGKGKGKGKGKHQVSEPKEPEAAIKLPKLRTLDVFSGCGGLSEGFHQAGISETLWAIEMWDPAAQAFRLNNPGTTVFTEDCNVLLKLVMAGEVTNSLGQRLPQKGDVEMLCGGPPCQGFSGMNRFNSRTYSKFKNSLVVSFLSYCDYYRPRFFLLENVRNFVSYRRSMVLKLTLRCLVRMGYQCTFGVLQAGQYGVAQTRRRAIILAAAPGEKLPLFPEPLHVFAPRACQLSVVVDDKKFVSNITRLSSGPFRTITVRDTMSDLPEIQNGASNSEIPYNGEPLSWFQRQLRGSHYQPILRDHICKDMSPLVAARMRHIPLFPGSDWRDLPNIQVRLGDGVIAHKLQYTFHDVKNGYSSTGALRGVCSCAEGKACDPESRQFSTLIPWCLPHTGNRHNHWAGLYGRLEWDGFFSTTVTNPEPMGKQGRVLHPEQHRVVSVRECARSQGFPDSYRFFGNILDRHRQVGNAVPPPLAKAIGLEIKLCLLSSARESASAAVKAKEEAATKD
UniProt Q9WVE0: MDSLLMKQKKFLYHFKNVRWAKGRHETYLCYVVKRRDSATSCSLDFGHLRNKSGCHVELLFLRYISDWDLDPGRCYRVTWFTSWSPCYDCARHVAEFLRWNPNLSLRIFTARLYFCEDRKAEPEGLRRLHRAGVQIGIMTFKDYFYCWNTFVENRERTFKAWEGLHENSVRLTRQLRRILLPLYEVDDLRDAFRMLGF

Target: DNA methyltransferase DNMT1 (mouse (endogenous in iGB cells from mouse splenic B cells)) (UniProt P13864)
Assay: co-IP

binding: no binding
Substance: Activation-induced cytidine deaminase (AID), wildtype (from UniProt Q9WVE0 1-198)
